Source: doi:10.1101/2024.09.10.612318
These are yes or no findings as the source states them, for the method shown. Some results given as binding are weak or reduced against the parent protein; the word gives no strength. Where a sequence is shown, tags or fusion partners need not be part of it.

Chains of the proteins cited; added tags and fusions are not shown.
UniProt Q13547: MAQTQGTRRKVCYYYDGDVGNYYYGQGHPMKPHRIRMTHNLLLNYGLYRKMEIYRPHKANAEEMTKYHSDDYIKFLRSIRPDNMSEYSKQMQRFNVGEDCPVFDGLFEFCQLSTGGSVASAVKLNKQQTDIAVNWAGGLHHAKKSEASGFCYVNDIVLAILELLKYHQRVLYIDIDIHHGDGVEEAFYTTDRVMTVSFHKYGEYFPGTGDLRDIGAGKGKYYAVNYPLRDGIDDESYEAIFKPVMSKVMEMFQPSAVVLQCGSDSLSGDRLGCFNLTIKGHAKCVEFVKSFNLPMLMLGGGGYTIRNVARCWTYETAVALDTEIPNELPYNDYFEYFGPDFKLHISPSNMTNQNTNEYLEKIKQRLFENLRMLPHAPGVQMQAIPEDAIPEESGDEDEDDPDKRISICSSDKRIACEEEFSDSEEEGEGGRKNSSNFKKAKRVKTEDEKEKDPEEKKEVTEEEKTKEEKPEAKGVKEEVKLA

Molecular target: T1, N-terminally 10xHis-3xFLAG-TEV tagged MIDEAS (UniProt Q6PJG2)
T1 sequence: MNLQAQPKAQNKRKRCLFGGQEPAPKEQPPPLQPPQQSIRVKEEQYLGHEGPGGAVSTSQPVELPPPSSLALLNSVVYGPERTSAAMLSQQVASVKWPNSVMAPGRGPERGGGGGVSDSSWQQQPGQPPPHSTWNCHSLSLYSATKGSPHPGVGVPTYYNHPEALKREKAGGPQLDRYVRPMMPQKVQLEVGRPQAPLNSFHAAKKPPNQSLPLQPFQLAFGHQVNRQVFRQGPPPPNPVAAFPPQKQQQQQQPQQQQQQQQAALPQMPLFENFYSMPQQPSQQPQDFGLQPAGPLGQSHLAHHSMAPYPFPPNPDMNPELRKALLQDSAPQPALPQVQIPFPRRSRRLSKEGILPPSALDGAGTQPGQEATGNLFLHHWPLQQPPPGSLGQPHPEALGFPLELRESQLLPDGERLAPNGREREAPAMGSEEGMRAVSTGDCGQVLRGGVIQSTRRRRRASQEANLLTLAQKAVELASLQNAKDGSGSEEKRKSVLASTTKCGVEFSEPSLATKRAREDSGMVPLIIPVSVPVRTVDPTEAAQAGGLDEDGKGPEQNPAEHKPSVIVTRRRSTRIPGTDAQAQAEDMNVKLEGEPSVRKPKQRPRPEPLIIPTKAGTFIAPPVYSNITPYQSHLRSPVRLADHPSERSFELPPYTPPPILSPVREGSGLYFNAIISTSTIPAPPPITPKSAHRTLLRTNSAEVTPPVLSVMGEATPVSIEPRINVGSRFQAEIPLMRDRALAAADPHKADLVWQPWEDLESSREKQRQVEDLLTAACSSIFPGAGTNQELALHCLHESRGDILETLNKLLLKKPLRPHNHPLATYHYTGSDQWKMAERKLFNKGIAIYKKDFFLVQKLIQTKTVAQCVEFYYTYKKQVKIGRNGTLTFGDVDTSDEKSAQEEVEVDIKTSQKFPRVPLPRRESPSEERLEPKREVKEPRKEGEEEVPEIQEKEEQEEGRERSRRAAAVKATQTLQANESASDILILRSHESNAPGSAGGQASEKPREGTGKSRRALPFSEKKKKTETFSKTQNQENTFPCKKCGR
Experiment: co-purification (anti-FLAG immunoaffinity resin, then gel filtration); co-transfected HEK293F, lysate on anti-FLAG resin by tagged MIDEAS, RNaseA, TEV release, Superdex 200 Increase 10/300 GL in 25 mM HEPES pH 7.5, 50 mM potassium acetate, 0.5 mM TCEP

Question: “HDAC1 (of the MiDAC preparation) (from UniProt Q13547 1-482) (enzyme)” was tested. Which binding did it give?
Answer: binds
